In PMC10239115:
Results are given in words; binding and its absence hold for the method and conditions named. In cells and extracts the contact can be indirect. Tags and fused reporters may be left off the sequences shown.

Target: T1, Flag-tagged Kremen2 (Kringle containing transmembrane protein 2) (UniProt Q8NCW0)
T1 sequence: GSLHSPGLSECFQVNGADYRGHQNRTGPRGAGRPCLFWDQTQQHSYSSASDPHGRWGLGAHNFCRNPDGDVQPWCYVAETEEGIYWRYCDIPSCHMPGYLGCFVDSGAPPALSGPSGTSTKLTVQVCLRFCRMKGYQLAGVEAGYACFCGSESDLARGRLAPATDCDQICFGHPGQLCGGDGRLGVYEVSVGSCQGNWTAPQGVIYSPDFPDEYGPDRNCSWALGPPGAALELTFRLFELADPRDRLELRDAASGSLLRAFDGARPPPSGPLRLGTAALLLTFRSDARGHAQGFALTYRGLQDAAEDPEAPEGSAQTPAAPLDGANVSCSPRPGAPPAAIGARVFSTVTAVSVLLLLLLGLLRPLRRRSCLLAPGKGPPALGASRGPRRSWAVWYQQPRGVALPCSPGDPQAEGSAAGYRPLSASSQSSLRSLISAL
Assay: co-IP; HEK293T transfected with Flag-Krm2; lysate in IP lysis buffer incubated with protein A/G magnetic beads and anti-Flag or normal IgG overnight at 4 °C; blots for EGFR, AKT, STAT3, SOCS3

binding: no binding
Substance: AKT, endogenous in HEK293T (human (endogenous in HEK293T)) (enzyme)
